Test results as given in US7556806B2, “Carbohydrate-based synthetic vaccines for HIV” (University of Maryland Biotechnology Institute, priority 2002, dated 2009).
At least one compound was matched to its structure with a doubt left. Some entries share one result that the patent states for a list of compounds.

Tests used:
[1] = Solubility in aqueous solution; assay type: physicochemical
[2] = molecular target: MAb 2G12 binding to HIV-1IIIB gp120; assay: Competitive ELISA: inhibition of 2G12 binding to immobilized gp120 by carbohydrate antigens; parameters: species or system human; settings: FIG. 14; estimated; not accurately determined for Man5GlcNAc and Man6GlcNAc because of low solubility; read-out: IC50 (concentration for 50% inhibition)
Experimental: Competitive ELISAs were performed to determine the relative inhibition potency of various carbohydrate antigens against the binding of 2G12 to gp120. Microtiter plates were coated with human cell line 293-expressed HIV-1IIIB gp120 (100 ng/ml) overnight at 4° C. After washing, non-specific binding was blocked with 5% BSA in PBS for 1 h at room temperature. The plates were then washed three times with 0.1% Tween-20/PBS. Serial dilutions (1:2) of various carbohydrate antigens were mixed with an equal volume of MAb 2G12 (fixed final concentration of 5 ng/ml) and added to the plates. The plates were incubated for 1 h at 37° C. and washed with washing buffer. To the plates was added a 100-μl solution of 1:3000 diluted horseradish peroxidase-conjugated goat anti-human IgG in 0.5% BSA/PBS. After incubation for 1 h at 37° C., the plates were washed again and a 100-μl solution of 3,3′,5,5′-tetramethyl benzidine (TMB) was added. Color was allowed to develop for 5 min, and the color reaction was quenched through adding a 100-μl solution of 0.5 M H2SO4 to each well. The optical density was then measured at 450 nm.
The binding affinity of the high-mannose oligosaccharides was examined by competitive inhibition of 2G12 binding to immobilized gp120, as shown in FIG. 14.
The synthetic Man9-clusters were examined for competitive inhibition of 2G12 binding to immobilized gp120 (FIG. 16).

| Molecule | solubility in aqueous solution [1] | IC50 [2] [µM] |
| --- | --- | --- |
| CC(=O)N[C@H]1C(O)O[C@H](CO)[C@@H](O[C@@H]2O[C@H](CO[C@H]3O[C@H](CO[C@H]4O[C@H](CO)[C@@H](O)[C@H](O)[C@@H]4O)[C@@H](O)[C@H](O[C@H]4O[C@H](CO)[C@@H](O)[C@H](O)[C@@H]4O)[C@@H]3O)[C@@H](O)[C@H](O[C@H]3O[C@H](CO)[C@@H](O)[C@H](O)[C@@H]3O)[C@@H]2O)[C@@H]1O (stereo partly drawn) [Man5GlcNAc] | less than 80 mM | – |
| CC(=O)N[C@H]1C(O)O[C@H](CO)[C@@H](O[C@@H]2O[C@H](CO[C@H]3O[C@H](CO[C@H]4O[C@H](CO)[C@@H](O)[C@H](O)[C@@H]4O[C@H]4O[C@H](CO)[C@@H](O)[C@H](O)[C@@H]4O)[C@@H](O)[C@H](O[C@H]4O[C@H](CO)[C@@H](O)[C@H](O)[C@@H]4O[C@H]4O[C@H](CO)[C@@H](O)[C@H](O)[C@@H]4O)[C@@H]3O)[C@@H](O)[C@H](O[C@H]3O[C@H](CO)[C@@H](O)[C@H](O)[C@@H]3O[C@H]3O[C@H](CO)[C@@H](O)[C@H](O)[C@@H]3O[C@H]3O[C@H](CO)[C@@H](O)[C@H](O)[C@@H]3O)[C@@H]2O)[C@@H]1O (stereo partly drawn) [Man9GlcNAc] | – | ~850 |
| Man6GlcNAc | less than 80 mM | – |
